Experimental data: PubChem BioAssay AID1259308 (NCATS, 2017)

- Test: 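Genes whose loss raises luciferase production in HEK293 cells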 (primary screen)
- Cells: human HEK293 embryonic kidney cells stably expressing firefly luciferase (HEK-CMV-Luc2-Hygro)
- Knock-down reagent: single siRNA against human genes, 0.8 pmol siRNA per well
- Timing: 72 h
- Measurement: 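Luciferase light (ONE-Glo) measured on one replicate plate set and viability (CellTiter-Glo) on the other, scaled to a negative control siRNA, with robust z-scores and luciferase per cell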
- Reading the numbers: total luciferase, z-score and total luciferase, % of control: higher = more reporter protein produced; luciferase per cell, z-score: higher = more reporter output per viable cell; viable cells, % of control: higher = more viable cells
- Rule for the call: 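Active when the median/MAD z-score for overall luciferase is greater than 3; a gene was taken forward for validation with new siRNAs if at least two of its three siRNAs passed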
- Meaning of the calls: active = raised luciferase; inactive = no rise
This is one part, drawn at random, of about 59,000 reagents. About 1,510 of them (2.6%) count as active. 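Calls use total luciferase alone and ignore viability, so some active siRNAs may act by altering cell number.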

gene | PubChem SID | total luciferase, z-score | total luciferase, % of control | luciferase per cell, z-score | viable cells, % of control | Call
USP9Y | SID160719794 | 0.566 | 93.1 | 0.0321 | 103 | inactive
USP9Y | SID160719795 | -0.366 | 74.6 | -0.317 | 90.6 | inactive
USP9Y | SID160719797 | 0.403 | 89.9 | 0.582 | 86.2 | inactive
C8orf34 | SID160755393 | -0.114 | 79.6 | 1.54 | 59.3 | inactive
C8orf34 | SID160755394 | 1.58 | 113 | 1.84 | 77.9 | inactive
C8orf34 | SID160755395 | -0.277 | 76.4 | -0.165 | 89.1 | inactive
ARHGEF16 | SID160732903 | 0.267 | 87.2 | 1.04 | 74.1 | inactive
ARHGEF16 | SID160738572 | 0.521 | 92.2 | 1.47 | 69.9 | inactive
ARHGEF16 | SID160738574 | -0.141 | 79.1 | -0.597 | 103 | inactive

2 neighbouring entries from above, for reference:
gene | PubChem SID | total luciferase, z-score | total luciferase, % of control | luciferase per cell, z-score | viable cells, % of control | Call
USP9Y | SID160719794 | 0.566 | 93.1 | 0.0321 | 103 | inactive
USP9Y | SID160719795 | -0.366 | 74.6 | -0.317 | 90.6 | inactive

Continued.
gene | PubChem SID | total luciferase, z-score | total luciferase, % of control | luciferase per cell, z-score | viable cells, % of control | Call
SOX4 | SID160717204 | -0.248 | 77 | -0.203 | 90.7 | inactive
SOX4 | SID160717205 | 4.24 | 166 | 4.04 | 64.1 | active
SOX4 | SID160731776 | 0.45 | 90.8 | -0.412 | 113 | inactive
DYNLT1 | SID160717871 | 0.76 | 97 | 0.399 | 97.6 | inactive
DYNLT1 | SID160717872 | -0.0959 | 80 | 0.162 | 85.6 | inactive
DYNLT1 | SID160717873 | -0.544 | 71.1 | -0.533 | 91.4 | inactive
GUCY2D | SID160774773 | 0.248 | 86.8 | -0.12 | 100 | inactive
GUCY2D | SID160774774 | -0.372 | 74.5 | -0.183 | 87.3 | inactive
GUCY2D | SID160774775 | 0.732 | 96.4 | 0.628 | 91.3 | inactive
ADRA2B | SID160714989 | 1.93 | 120 | 1.31 | 95.3 | inactive
ADRA2B | SID160715000 | 0.869 | 99.2 | 0.301 | 102 | inactive
ADRA2B | SID160715011 | -0.75 | 67 | 0.0489 | 73.9 | inactive
GRTP1 | SID160749403 | 0.518 | 92.2 | 0.507 | 90.1 | inactive
GRTP1 | SID160749404 | 0.122 | 84.3 | 0.729 | 77.8 | inactive
GRTP1 | SID160749405 | -2.4 | 34.1 | -2.36 | 70.9 | inactive
